From patent EP1736154A1 (priority 2005, dated 2006) come the findings set out here.

These are yes or no findings as the source states them, for the method shown. In cells and extracts the contact can be indirect. Some entries that bind do so weakly or less than the wild type. Where a sequence is shown, tags or fusion partners need not be part of it.

The experiment concerns the target T1, endogenous tra2-beta1 (UniProt P62995).
T1 sequence (looked up): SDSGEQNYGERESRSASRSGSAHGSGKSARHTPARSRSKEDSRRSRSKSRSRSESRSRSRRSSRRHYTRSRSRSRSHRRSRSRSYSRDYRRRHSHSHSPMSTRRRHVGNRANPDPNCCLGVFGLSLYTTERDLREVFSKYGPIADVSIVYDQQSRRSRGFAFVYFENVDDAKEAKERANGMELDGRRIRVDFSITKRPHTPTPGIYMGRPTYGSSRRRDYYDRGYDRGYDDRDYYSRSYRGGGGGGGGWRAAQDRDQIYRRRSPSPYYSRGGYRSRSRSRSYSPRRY
In words: co-immunoprecipitation (anti-GFP), reblot with anti tra2-beta1 (Figure 1C).

B1: EGFP-tra2-beta1 (protein, UniProt P62995 1-288, looked up, not shown: large carriers)
chain: MSDSGEQNYGERESRSASRSGSAHGSGKSARHTPARSRSKEDSRRSRSKSRSRSESRSRSRRSSRRHYTRSRSRSRSHRRSRSRSYSRDYRRRHSHSHSPMSTRRRHVGNRANPDPNCCLGVFGLSLYTTERDLREVFSKYGPIADVSIVYDQQSRRSRGFAFVYFENVDDAKEAKERANGMELDGRRIRVDFSITKRPHTPTPGIYMGRPTYGSSRRRDYYDRGYDRGYDDRDYYSRSYRGGGGGGGGWRAAQDRDQIYRRRSPSPYYSRGGYRSRSRSRSYSPRRY
For B1, the binding entry is given as “binds”.
